Experimental data from article PMC9935630.
No constants are given. Whether binding was seen depends on the method and setting. Binding seen in cells or lysates may run through a third protein. Some binding calls cover weakened binding; strength is not graded here.

Amino acid sequences for entries named in this document (tags omitted).
UniProt Q9DCC8: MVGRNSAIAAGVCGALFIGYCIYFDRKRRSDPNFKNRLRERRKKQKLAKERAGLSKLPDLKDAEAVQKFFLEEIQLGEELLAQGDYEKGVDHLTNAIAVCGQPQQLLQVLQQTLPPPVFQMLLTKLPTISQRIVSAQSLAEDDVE

Molecular target: T1, GSDMD, mouse, endogenous in bone marrow neutrophils (precipitated with anti-GSDMD) (mouse (endogenous in bone marrow neutrophils)) (UniProt Q9D8T2)
T1 sequence: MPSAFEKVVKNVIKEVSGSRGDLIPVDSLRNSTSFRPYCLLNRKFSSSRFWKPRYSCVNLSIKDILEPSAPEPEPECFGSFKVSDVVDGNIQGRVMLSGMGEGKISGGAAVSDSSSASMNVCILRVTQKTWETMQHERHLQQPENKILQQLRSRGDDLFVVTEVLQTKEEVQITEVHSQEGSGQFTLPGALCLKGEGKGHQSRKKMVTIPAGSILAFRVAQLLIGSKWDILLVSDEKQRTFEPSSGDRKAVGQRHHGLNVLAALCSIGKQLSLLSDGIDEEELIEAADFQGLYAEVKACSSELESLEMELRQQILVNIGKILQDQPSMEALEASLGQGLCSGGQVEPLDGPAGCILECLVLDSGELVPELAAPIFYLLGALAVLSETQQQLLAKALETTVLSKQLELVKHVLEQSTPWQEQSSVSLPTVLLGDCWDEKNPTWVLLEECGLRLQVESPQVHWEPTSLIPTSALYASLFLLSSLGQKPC
Test: co-IP; lysate of bone marrow neutrophils (NP40 buffer) after IFN-γ plus lupus serum for 12 h, with or without Mito-TEMPO; precipitated with anti-GSDMD and protein A/G agarose, washed with NETN300 and NETN100, blotted for TOMM20 and GSDMD

translocase of outer mitochondrial membrane 20 (TOMM20), mouse, endogenous in bone marrow neutrophils (from UniProt Q9DCC8 1-145)
binding: binds
